PubChem BioAssay AID248 (DTP/NCI, 2004)
The list shows only some results of the screen, not a fair sample: it is rich in T/C values a quarter to a half above the control, in often repeated tests (any T/C) and in doses without a T/C. Further doses and runs are listed elsewhere. T/C is the treated group as % of the vehicle group. Some doses have a count of surviving animals in place of a T/C: the source holds a T/C of zero for them, seemingly a mark for toxic or unscored doses. Some survivor counts are full or nearly so, which does not show that the dose was tolerated: survival well below the control is almost never listed, so the zero probably covers shortened survival too. Counts of survivors are from the toxicity check (mostly the fifth day) where no day follows; animals may have died later. Schedules are NCI's codes, taken here to give the interval after Q, in days (D) or hours (H), and the number of doses after X. Some schedules carry Z or #; the key to these is not given. Some doses were run more than once; the results are listed from low to high. Where survival is the endpoint, the PubChem record calls one and a half times the control and up active, and a quarter to a half above the control has no call in these data; cut-offs in other NCI protocols can differ.

System: L1210 leukemia ip in BDF1 mice, survival T/C
Experiment: NCI In Vivo Anticancer Drug Screen. Data for tumor model L1210 Leukemia (intraperitoneal) in B6D2F1 (BDF1) mice
Details: T/C endpoint: mean survival time, higher T/C = longer survival
[1] = dose: 400.0 mg/kg/injection, schedule: Q01DX009 (ip), vehicle: Klucel (hydroxypropylcellulose) (HPC)
[2] = dose: 400.0 mg/kg/injection, schedule: Q04DX003 (ip), vehicle: saline with Tween-80
[3] = dose: 400.0 mg/kg/injection, schedule: Q01DX001 (ip), vehicle: saline
[4] = dose: 200.0 mg/kg/injection, schedule: Q04DX003 (ip), vehicle: saline
[5] = dose: 400.0 mg/kg/injection, schedule: Q04DX003 (ip), vehicle: saline
[6] = dose: 200.0 mg/kg/injection, schedule: Q04DX003 (ip), vehicle: Klucel (hydroxypropylcellulose) (HPC)
[7] = dose: 300.0 mg/kg/injection, schedule: Q01DX001 (ip), vehicle: saline
[8] = dose: 100.0 mg/kg/injection, schedule: Q01DX009 (ip), vehicle: Klucel (hydroxypropylcellulose) (HPC)
[9] = dose: 200.0 mg/kg/injection, schedule: Q04DX003 (ip), vehicle: saline with Tween-80
[10] = dose: 50.0 mg/kg/injection, schedule: Q01DX009 (ip), vehicle: saline
[11] = dose: 100.0 mg/kg/injection, schedule: Q01DX009 (ip), vehicle: saline
[12] = dose: 200.0 mg/kg/injection, schedule: Q01DX009 (ip), vehicle: Klucel (hydroxypropylcellulose) (HPC)
[13] = dose: 100.0 mg/kg/injection, schedule: Q04DX003 (ip), vehicle: saline

C=CCNC(=S)Nc1cccc(OC(=O)Nc2ccc(Cl)c(Cl)c2)c1
survivor count [1]: 6 of 6

N#CCc1c(Cl)sc(Cl)c1CC#N
survivor count [2]: 0 of 3

CCSc1ncc2cnccn12
survivor count (dose: 100.0 mg/kg/injection, schedule: Q01DX009 (ip), vehicle: water): 3 of 6
survivor count (dose: 200.0 mg/kg/injection, schedule: Q04DX003 (ip), vehicle: water): 0 of 6
survivor count (dose: 400.0 mg/kg/injection, schedule: Q04DX003 (ip), vehicle: water): 0 of 6

Cc1nc2ccccc2c(=O)n1N
survivor count [3]: 0 of 6

Cc1c[n+]([O-])ccc1[N+](=O)[O-]
survivor count [4]: 3 of 6
survivor count [5]: 1 of 6

Cc1sc2ccc3ccccc3c2[n+]1C
survivor count [6]: 1 of 6
survivor count [7]: 1 of 6

O=C(CC[n+]1ccccc1)NCCCCCCNC(=O)CC[n+]1ccccc1
survivor count (dose: 10.0 mg/kg/injection, schedule: Q01DX001 (ip), vehicle: saline): 0 of 6
survivor count (dose: 20.0 mg/kg/injection, schedule: Q01DX001 (ip), vehicle: saline): 0 of 6
survivor count (dose: 40.0 mg/kg/injection, schedule: Q01DX001 (ip), vehicle: saline): 0 of 6
survivor count (dose: 80.0 mg/kg/injection, schedule: Q01DX001 (ip), vehicle: saline): 0 of 6

O=P(NC12CC3CC(CC(C3)C1)C2)(N1CC1)N1CC1
T/C (dose: 6.0 mg/kg/injection, schedule: Q04DX003 (ip), vehicle: Klucel (hydroxypropylcellulose) (HPC)): 125 % of control
T/C (dose: 9.0 mg/kg/injection, schedule: Q04DX003 (ip), vehicle: Klucel (hydroxypropylcellulose) (HPC)): 138 % of control
T/C (dose: 12.0 mg/kg/injection, schedule: Q01DX001 (ip), vehicle: Klucel (hydroxypropylcellulose) (HPC)): 128 % of control
T/C (dose: 18.0 mg/kg/injection, schedule: Q01DX001 (ip), vehicle: Klucel (hydroxypropylcellulose) (HPC)): 148 % of control
T/C (dose: 40.0 mg/kg/injection, schedule: Q01DX001 (ip), vehicle: Klucel (hydroxypropylcellulose) (HPC)): 146 % of control
survivor count (dose: 40.0 mg/kg/injection, schedule: Q04DX003 (ip), vehicle: Klucel (hydroxypropylcellulose) (HPC)): 6 of 6
survivor count (dose: 80.0 mg/kg/injection, schedule: Q04DX003 (ip), vehicle: Klucel (hydroxypropylcellulose) (HPC)): 5 of 6
survivor count (dose: 100.0 mg/kg/injection, schedule: Q04DX003 (ip), vehicle: Klucel (hydroxypropylcellulose) (HPC)): 6 of 6
survivor count [6]: 4 of 6
survivor count (dose: 400.0 mg/kg/injection, schedule: Q04DX003 (ip), vehicle: Klucel (hydroxypropylcellulose) (HPC)): 5 of 6

C=C(C)CN1C(=O)c2ccccc2C1=O
survivor count (dose: 100.0 mg/kg/injection, schedule: Q01DX009 (ip), vehicle: gum acacia): 6 of 6
survivor count (dose: 200.0 mg/kg/injection, schedule: Q01DX009 (ip), vehicle: gum acacia): 6 of 6
survivor count (dose: 400.0 mg/kg/injection, schedule: Q01DX009 (ip), vehicle: gum acacia): 6 of 6

CC(=O)OC/N=[N+](/C)[O-]
survivor count (dose: 25.0 mg/kg/injection, schedule: Q01DX Z (ip), vehicle: saline): 0 of 6
survivor count (dose: 50.0 mg/kg/injection, schedule: Q01DX Z (ip), vehicle: saline): 0 of 6
survivor count (dose: 100.0 mg/kg/injection, schedule: Q01DX Z (ip), vehicle: saline): 0 of 6

ClC1CCC[N-]C1.ClC1CCC[N-]C1.[Cl][Pt+2][Cl] (stereo unspecified)
survivor count [2]: 5 of 6

O=[N+]([O-])/C=C/c1ccc(Cl)cc1
survivor count [8]: 0 of 6

Cc1c(C(=O)O)nnn1-c1ccccc1
survivor count [7]: 1 of 6

c1cc2c3c(c1)nc(CCCc1nc4cccc5c4n1CCC5)n3CCC2
survivor count [9]: 6 of 6
survivor count [2]: 6 of 6

O=C(C=C(C(F)(F)F)C(F)(F)F)c1cccc(Cl)c1
survivor count [10]: 6 of 6
survivor count (dose: 50.0 mg/kg/injection, schedule: Q04DX003 (ip), vehicle: saline with Tween-80): 6 of 6
survivor count (dose: 100.0 mg/kg/injection, schedule: Q04DX003 (ip), vehicle: saline with Tween-80): 3 of 6
survivor count [9]: 3 of 6
survivor count [2]: 0 of 6

OCCCCc1nccc2c1[nH]c1ccccc12
survivor count [11]: 3 of 6

CNC(=O)NNC(=O)CNC(=O)Nc1cccc(C(F)(F)F)c1
survivor count [8]: 1 of 6
survivor count [12]: 0 of 6
survivor count [1]: 0 of 6

Nc1c(O)c(Cl)cc(Cl)c1Cl
survivor count (dose: 400.0 mg/kg/injection, schedule: Q04DX002 (ip), vehicle: other): 0 of 3

O=C(Nc1cccc(C2=NCCN2)c1)c1cccc2c(C(=O)Nc3cccc(C4=NCCN4)c3)cccc12
survivor count (dose: 30.0 mg/kg/injection, schedule: Q01DX Z (ip), vehicle: carboxymethylcellulose (CMC)): 0 of 6
survivor count (dose: 60.0 mg/kg/injection, schedule: Q01DX Z (ip), vehicle: carboxymethylcellulose (CMC)): 0 of 6
survivor count (dose: 120.0 mg/kg/injection, schedule: Q01DX Z (ip), vehicle: carboxymethylcellulose (CMC)): 0 of 6

CCn1c(N)c2c(ncn2Cc2ccccc2)nc1=S
survivor count (dose: 100.0 mg/kg/injection, schedule: Q01DX001 (ip), vehicle: acetone): 1 of 6
survivor count (dose: 200.0 mg/kg/injection, schedule: Q01DX001 (ip), vehicle: acetone): 0 of 6
survivor count (dose: 400.0 mg/kg/injection, schedule: Q01DX001 (ip), vehicle: acetone): 0 of 6

CC(=O)Nc1ccc(NC(=O)Nc2cccc(C(F)(F)F)c2)cc1
survivor count [1]: 6 of 6

CC(=O)NCC1(c2ccccc2)CCN(CCCC(=O)c2ccc(F)cc2)CC1
survivor count (dose: 6.25 mg/kg/injection, schedule: Q03HX024 (ip), vehicle: saline): 6 of 6
survivor count (dose: 12.5 mg/kg/injection, schedule: Q03HX024 (ip), vehicle: saline): 6 of 6
T/C [13]: 134 % of control
survivor count [13]: 6 of 6
survivor count (dose: 132.0 mg/kg/injection, schedule: Q01DX009 (ip), vehicle: saline): 0 of 6
survivor count [4]: 1 of 6 and 3 of 4
survivor count (dose: 264.0 mg/kg/injection, schedule: Q01DX009 (ip), vehicle: saline): 0 of 6
survivor count [7]: 1 of 6
survivor count [5]: 0 of 4

CCCCCc1ccccc1
survivor count (dose: 1600.0 mg/kg/injection, schedule: Q01DX Z (ip), vehicle: carboxymethylcellulose (CMC)): 0 of 6

Cn1c(N)c(N=O)c(=O)n(C)c1=O
survivor count (dose: 720.0 mg/kg/injection, schedule: Q01DX009 (ip), vehicle: saline with Tween-80): 1 of 6
survivor count (dose: 1440.0 mg/kg/injection, schedule: Q04DX003 (ip), vehicle: saline with Tween-80): 2 of 6
survivor count (dose: 2880.0 mg/kg/injection, schedule: Q04DX003 (ip), vehicle: saline with Tween-80): 0 of 6

C=CC[P+](C)(c1ccccc1)c1ccccc1
survivor count (dose: 6.25 mg/kg/injection, schedule: Q01DX009 (ip), vehicle: saline): 1 of 3
survivor count (dose: 12.5 mg/kg/injection, schedule: Q01DX009 (ip), vehicle: saline): 0 of 3
survivor count (dose: 25.0 mg/kg/injection, schedule: Q01DX009 (ip), vehicle: saline): 0 of 3
survivor count [10]: 0 of 3
survivor count [11]: 0 of 3
survivor count (dose: 200.0 mg/kg/injection, schedule: Q01DX009 (ip), vehicle: saline): 0 of 3

S=C(N/N=C/c1ccc(-c2ccccc2)cc1)Nc1ccccc1
survivor count (dose: 400.0 mg/kg/injection, schedule: Q01DX009 (ip), vehicle: saline with Tween-80): 3 of 6

CC1(C)N=C(N)N=C(N)N1c1ccccc1I
survivor count [8]: 2 of 6
survivor count [12]: 0 of 6
survivor count [1]: 0 of 6

O=C(C[n+]1ccc2ccccc2c1)c1ccc(-c2ccccc2)cc1
survivor count [3]: 3 of 6
